Assay: Absorption and fluorescence of LEAT proteins and their mutants
Format: physicochemical
Conditions: for Fluorescence: fluorescence intensity in words, recombinant protein from E. coli
From the text: FIG. 7. Absorption spectra of YFP (A, B) and mCherry (E, F) and their mutants. (B) is a zoom in view of YFPmu4 and YFPmu7 in (A). (F) is a zoom in view of mCherrymu4 and mCherrymu7 in (E). Fluorescence of YFP (C) and mCherry (G) and their mutant. Water hydrolysis and O2 evolution activities of YFP (D) and mCherry (H) and their mutants under light. (A, B, C, E, F, G): absorption and fluorescence intensities were compared with same concentrations of proteins. Absorption intensity of non-mutated YFP or mCherry is considered as 1, and fluorescence intensity of non-mutated YFP or mCherry is considered as 100.

| Molecule | Fluorescence | Fluorescence emission wavelength |
| --- | --- | --- |
| rfloRFP: red fluorescent protein from Ricordea florida (AY037773), SEQ ID NO: 42 (protein, listed as Ricordea florida) MSALKEEMKIKLTLVGVVNGHPFKIIGDGKGKPYEGSQELTLAVVEGGPLPFSYDILTTIVHYGNRAFVNYPKDIPDIFKQTCSGPGAGYSWQRTMSFEDGGVCTATSHIRVDGDTFNYDIHFMGADFPLNGPVMQKRTVKWEPSTEIMFQCDGLLRGDVAMSLLLKGGGHYRCDFKTIYKPKKNVKMPGYHFVDHCIEITSQQDDYNVVELYEGAVAHYSPLQKPCQAKA | weak |  |
| anm2CP: chromoprotein from Anthomedusae sp. SL-2003 (AY485336), SEQ ID NO: 48 (protein, listed as Anthomedusae sp.) MEGGPALFQSDMTFKIFIDGVVNDQKFTIIADGSSKFPHGDFNVHAVCETGKLPMSWKPICHLIQYGEPFFAKYPNGISHFAQECFPEGLTIDRTVRFENDGTMTSHHTYELDGTCVISRITVNCDGFQPDGPIMKDQLVDILPTETHMFPHGSNAVRQLCYIGFTTADGGLMMSHFDSKLTFNGSRAIKIPGPHFVTVIIKQMKDTSDKRDHVCQREVTYAHSVPRITSAI |  | 830-870 nm, |
| cpGFP: green fluorescent protein from Chiridius poppei (AB185173), SEQ ID NO: 52 (protein, listed as Chiridius poppei) MTTFKIESRIHGNLNGEKFELVGGGVGEEGRLEIEMKTKDKPLAFSPFLLSHCMGYGFYHFASFPKGTKNIYLHAATNGGYTNTRKEIYEDGGILEVNFRYTYEFNKIIGDVECIGHGFPSQSPIFKDTIVKSCPTVDLMLPMSGNIIASSYARAFQLKDGSFYTAEVKNNIDFKNPIHESFSKSGPMFTHRRVEETHTKENLAMVEYQQVFNSAPRDM | Stong |  |
| rmueGFP: green fluorescent protein from Renilla muelleri (AY015996), SEQ ID NO: 44 (protein, listed as Renilla muelleri) MSKQILKNTCLQEVMSYKVNLEGIVNNHVFTMEGCGKGNILFGNQLVQIRVTKGAPLPFAFDIVSPAFQYGNRTFTKYPNDISDYFIQSFPAGFMYERTLRYEDGGLVEIRSDINLIEDKFVYRVEYKGSNFPDDGPVMQKTILGIEPSFEAMYMNNGVLVGEVILVYKLNSGKYYSCHMKTLMKSKGVVKEFPSYHFIQHRLEKTYVEDGGFVEQHETAIAQMTSIGKPLGSLHEWV | weak |  |
| phiYFP: yellow fluorescent protein from Phialidium sp. SL-2003 (AY485333), SEQ ID NO: 50 (protein, Aequorea Victoria) MSSGALLFHGKIPYVVEMEGNVDGHTFSIRGKGYGDASVGKVDAQFICTTGDVPVPWSTLVTTLTYGAQCFAKYGPELKDFYKSCMPEGYVQERTITFEGDGVFKTRAEVTFENGSVYNRVKLNGQGFKKDGHVLGKNLEFNFTPHCLYIWGDQANHGLKSAFKIMHEITGSKEDFIVADHTQMNTPIGGGPVHVPEYHHITYHVTLSKDVTDHRDNMSLVETVRAVDCRKTYL | Strong |  |
| scubGFP: green fluorescent protein from Scolymia cubensis (AY037767), SEQ ID NO: 40 (protein, listed as Echinopora forskaliana) MQRAGMKVKEHMKIKLRMGGTVNGKHFAVNGTGDGYPYQGKQILKLIVEGSEPLPFAFDILSAAFQYGNRAFTEYPTEIADYFKQSFEFGEGFSWERSFTFEDGAICVATNDITMVGGEFQYDIRFDGLNFPEDGPVMQKKTVKWEPSTEIMYMQNGVLKGEVNMALLLQDKSHYRCDLKTTYKAKNNVPHPPGYHYVDHCIEILEERKDHVKLREHAKARSSLSPTSAKERKA | Strong |  |
| efofCP/RFP: protein from Echinopora forskaliana (EU498726), SEQ ID NO: 34 (protein, listed as Echinopora forskaliana) MSVIKQVMKTKLHLEGTVNGHDFTIEGKGEGKPYEGLQHMKMTVTKGAPLPFSVHILTPSHMYGSKPFNKYPADIPDYHKQSFPEGMSWERSMIFEDGGVCTASNHSSINLQENCFIYDVKFHGVNLPPDGPVMQKTIAGWEPSVETLYVRDGMLKSDTAMVFKLKGGGHHRVDFKTTYKAKKPVKLPEFHFVEHRLELTKHDKDFTTWDQQEAAEGHFSPLPKALP | Strong |  |
| spisCP: non-fluorescent chromoprotein from Stylophora pistillata (DQ206398), SEQ ID NO: 38 (protein, listed as Echinopora forskaliana) MSHSKQALADTMKMTWLMEGSVNGHAFTIEGEGTGKPYEGKQSGTFRVTKGGPLPFAFDIVAPTLKYGFKCFMKYPADIPDYFKLAFPEGLTYDRKIAFEDGGCATATVEMSLKGNTLVHKTNFQGGNFPIDGPVMQKRTLGWEPTSEKMTPCDGIIKGDTIMYLMVEGGKTLKCRYENNYRANKPVLMPPSHFVDLRLTRTNLDKEGLAFKLEEYAVARVLEV | Extream weak |  |
| efasCFP: cyan fluorescent protein from Eusmilia fastigiata (DQ206397), SEQ ID NO: 36 (protein, listed as Echinopora forskaliana) MSFSKQVLNDVTMTYFMEGSVNGHDFTIEGEGTGKPYEGHQRFNLRVTKGAPLPFAVDILSAAFAYGNRCFTKYPKEIPDFFKQSLPEDMSWERTMTFEDGGIVAISAHIRLIGNRFEHKSKFVGVNFPADGPVMQRKTLGWEPSSEKMTPRDGILKGYVPSFLVLQGGGNYRCDYDTSYRAMKPVEMPGGHFIQHRIVRRDIKKDSNGNTWQIQEDAFAHNSEVPDSA | Strong |  |
| ceriantRFP: red fluorescent protein from Cerianthus sp. DW-2003 (AY296063), SEQ ID NO: 46 (protein, listed as Cerianthus sp.) MNLSKNVSVSVYMKGNVNNHEFEYDGEGGGDPYTGKYSMKMTLRGQNCLPFSYDIITTAFQYGFRVFTKYPEGIVDYFKDSLPDAFQWNRRIVFEDGGVLNMSSDITYKDNVLHGDVWAVGVNFPPNGPVMKNEIVMEEPTEETFTPKNGVLVGFCPKAYLLKDGSYYYGNMTTFYRSKKSGQAPPGYHFVKHRLVKTNVGHGFKTVEQTEYATAHVSDLPK | strong |  |

— patent publication US20170037425A1, “METHOD FOR IMPROVING PLANT TRAIT” (SHANGHAI INSTITUTES FOR BIOLOGICAL SCIENCES, CHINESE …, priority 2012, published 2017)
